This is an account of results in article PMC8636648.

The chains behind the UniProt entries cited, without tags or fusion partners.
UniProt Q00987: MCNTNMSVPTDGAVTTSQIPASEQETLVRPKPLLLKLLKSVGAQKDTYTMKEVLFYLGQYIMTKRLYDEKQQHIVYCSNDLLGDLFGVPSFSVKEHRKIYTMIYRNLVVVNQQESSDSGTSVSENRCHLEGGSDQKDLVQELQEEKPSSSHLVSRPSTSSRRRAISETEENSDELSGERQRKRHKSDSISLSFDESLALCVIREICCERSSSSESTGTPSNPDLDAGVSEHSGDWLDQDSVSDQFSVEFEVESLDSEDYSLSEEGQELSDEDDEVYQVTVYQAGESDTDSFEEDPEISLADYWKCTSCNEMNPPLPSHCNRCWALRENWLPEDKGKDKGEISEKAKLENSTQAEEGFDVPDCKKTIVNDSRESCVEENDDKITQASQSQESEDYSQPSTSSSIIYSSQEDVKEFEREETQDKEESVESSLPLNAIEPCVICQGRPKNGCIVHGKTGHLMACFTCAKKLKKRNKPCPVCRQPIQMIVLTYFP

The target of the assay is T1, RE1 silencing transcription factor (REST) (human (endogenous in pancreatic cancer cells)) (UniProt Q13127).
T1 sequence: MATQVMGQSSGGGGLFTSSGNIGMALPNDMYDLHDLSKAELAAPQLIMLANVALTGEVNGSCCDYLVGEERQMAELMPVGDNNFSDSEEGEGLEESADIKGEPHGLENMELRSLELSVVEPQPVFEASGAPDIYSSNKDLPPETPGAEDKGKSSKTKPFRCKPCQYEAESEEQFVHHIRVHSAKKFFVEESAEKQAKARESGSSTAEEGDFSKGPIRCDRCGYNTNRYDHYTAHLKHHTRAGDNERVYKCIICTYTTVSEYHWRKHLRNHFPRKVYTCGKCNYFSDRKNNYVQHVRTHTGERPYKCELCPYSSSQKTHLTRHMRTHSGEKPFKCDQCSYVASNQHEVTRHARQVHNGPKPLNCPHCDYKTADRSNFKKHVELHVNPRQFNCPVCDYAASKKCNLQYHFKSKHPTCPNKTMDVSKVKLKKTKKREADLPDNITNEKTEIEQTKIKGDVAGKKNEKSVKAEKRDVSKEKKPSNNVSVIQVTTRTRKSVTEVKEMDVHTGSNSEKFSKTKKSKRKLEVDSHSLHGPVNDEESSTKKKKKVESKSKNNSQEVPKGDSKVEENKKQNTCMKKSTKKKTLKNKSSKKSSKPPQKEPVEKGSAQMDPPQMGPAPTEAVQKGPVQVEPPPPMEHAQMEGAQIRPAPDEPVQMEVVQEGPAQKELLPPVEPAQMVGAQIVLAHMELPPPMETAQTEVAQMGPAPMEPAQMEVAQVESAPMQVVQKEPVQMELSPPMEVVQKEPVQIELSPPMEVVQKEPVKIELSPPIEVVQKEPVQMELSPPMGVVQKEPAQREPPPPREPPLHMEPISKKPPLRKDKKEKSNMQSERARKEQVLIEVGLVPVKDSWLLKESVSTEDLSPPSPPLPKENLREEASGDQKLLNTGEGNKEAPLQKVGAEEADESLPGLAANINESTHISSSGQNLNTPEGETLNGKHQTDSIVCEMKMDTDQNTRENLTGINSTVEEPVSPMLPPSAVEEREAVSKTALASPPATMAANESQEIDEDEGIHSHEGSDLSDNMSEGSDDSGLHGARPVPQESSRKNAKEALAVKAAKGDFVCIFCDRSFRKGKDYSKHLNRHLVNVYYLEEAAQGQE
Briefly: co-IP; anti-REST, anti-MDM2 or normal IgG; complex examined by western blot; PC cells with or without KCNK15-AS1 overexpression.

Results are given in words; binding and its absence hold for the method and conditions named. In cells and extracts the contact can be indirect. Some entries that bind do so weakly or less than the wild type.

“MDM2 proto-oncogene (MDM2) (from UniProt Q00987 1-491)”: the binding result is given as “binds”.
